Assay in all cases: selective ribosome profiling (SeRP); lysate crosslinked with DSP, RNase I digest, ribosome-nascent chain complexes pelleted through 25% sucrose; twin-StrepII importin purified on Streptactin resin (20 mM Hepes-KOH pH 7.5, 140 mM KCl, 10 mM MgCl2, CHX, 4 °C); ribosome-protected mRNA footprints sequenced, IP/total against a no-bait wildtype; n = 4
Assay [1] deals with Kap95 (importin-beta), C-terminally twin-StrepII-tagged (S. cerevisiae) (UniProt Q06142).
Assay [2] deals with Srp1 (importin-alpha), C-terminally twin-StrepII-tagged (S. cerevisiae) (UniProt Q02821).
For assay [3], the target named is T1, Kap123, C-terminally twin-StrepII-tagged (S. cerevisiae) (UniProt P40069).
T1 sequence: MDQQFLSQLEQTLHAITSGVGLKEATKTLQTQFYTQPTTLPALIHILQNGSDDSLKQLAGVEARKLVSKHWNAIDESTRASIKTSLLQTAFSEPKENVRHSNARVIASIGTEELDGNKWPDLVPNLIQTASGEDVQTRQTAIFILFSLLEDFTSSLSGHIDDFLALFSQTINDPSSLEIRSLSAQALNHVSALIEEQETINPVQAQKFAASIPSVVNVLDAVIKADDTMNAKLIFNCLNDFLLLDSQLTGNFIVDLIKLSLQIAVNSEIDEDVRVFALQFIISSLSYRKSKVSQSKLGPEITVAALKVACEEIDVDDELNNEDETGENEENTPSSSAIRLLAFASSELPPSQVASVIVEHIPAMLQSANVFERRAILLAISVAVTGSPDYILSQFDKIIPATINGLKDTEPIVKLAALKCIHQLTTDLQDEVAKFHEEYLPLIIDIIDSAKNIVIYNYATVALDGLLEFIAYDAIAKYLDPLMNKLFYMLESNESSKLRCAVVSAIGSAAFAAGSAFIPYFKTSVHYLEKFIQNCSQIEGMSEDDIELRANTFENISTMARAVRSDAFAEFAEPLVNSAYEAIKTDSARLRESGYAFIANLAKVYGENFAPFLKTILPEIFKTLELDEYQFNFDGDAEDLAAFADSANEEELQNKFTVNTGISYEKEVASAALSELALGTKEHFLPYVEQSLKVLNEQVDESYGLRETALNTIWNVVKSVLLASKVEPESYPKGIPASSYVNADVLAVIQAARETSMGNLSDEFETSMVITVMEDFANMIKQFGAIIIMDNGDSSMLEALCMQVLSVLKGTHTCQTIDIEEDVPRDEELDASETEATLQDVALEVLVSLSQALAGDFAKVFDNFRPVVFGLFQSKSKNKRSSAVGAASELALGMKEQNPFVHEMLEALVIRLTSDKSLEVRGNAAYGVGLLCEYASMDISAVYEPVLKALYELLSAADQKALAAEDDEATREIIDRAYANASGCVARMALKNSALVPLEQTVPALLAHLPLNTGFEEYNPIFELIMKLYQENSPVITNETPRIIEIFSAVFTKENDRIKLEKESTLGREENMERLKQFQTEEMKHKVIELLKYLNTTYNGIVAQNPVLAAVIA

Amino acid sequences for entries named in this document (tags omitted).
UniProt Q06142: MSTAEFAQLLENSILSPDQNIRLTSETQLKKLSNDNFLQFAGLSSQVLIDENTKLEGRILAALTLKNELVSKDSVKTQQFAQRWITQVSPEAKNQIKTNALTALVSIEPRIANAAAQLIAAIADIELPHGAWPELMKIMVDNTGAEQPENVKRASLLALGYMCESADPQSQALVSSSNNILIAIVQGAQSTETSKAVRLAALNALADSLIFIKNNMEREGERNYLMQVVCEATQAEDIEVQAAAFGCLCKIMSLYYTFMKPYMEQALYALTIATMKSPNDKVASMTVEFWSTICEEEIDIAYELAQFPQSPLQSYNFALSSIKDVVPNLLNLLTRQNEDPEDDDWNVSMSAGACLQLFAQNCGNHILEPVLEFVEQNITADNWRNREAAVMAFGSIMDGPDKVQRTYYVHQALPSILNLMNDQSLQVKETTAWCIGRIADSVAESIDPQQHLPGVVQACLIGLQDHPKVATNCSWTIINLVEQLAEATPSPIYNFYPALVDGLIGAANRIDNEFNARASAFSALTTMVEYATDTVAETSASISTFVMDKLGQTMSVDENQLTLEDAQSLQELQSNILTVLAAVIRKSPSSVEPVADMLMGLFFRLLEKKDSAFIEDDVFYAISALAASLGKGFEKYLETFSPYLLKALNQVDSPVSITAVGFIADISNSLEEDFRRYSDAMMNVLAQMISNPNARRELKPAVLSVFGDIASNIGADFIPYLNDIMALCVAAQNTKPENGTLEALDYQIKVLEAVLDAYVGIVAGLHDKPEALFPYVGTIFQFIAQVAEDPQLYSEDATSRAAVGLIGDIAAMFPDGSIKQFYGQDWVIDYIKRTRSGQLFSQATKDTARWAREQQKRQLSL
UniProt Q02821: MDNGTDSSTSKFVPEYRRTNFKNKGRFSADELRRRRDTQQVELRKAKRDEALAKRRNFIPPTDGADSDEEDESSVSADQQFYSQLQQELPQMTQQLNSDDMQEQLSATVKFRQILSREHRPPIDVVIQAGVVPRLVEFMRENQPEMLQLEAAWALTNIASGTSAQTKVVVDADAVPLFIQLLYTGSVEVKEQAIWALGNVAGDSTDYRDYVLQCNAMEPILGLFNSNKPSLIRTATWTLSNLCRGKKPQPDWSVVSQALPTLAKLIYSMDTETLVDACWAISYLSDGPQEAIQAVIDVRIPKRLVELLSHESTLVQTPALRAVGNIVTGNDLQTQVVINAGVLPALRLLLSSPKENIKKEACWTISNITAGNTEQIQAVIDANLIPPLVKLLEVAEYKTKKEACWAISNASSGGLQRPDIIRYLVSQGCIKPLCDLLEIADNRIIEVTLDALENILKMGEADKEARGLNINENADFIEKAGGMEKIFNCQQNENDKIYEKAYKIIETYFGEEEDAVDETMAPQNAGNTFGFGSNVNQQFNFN
UniProt P33334: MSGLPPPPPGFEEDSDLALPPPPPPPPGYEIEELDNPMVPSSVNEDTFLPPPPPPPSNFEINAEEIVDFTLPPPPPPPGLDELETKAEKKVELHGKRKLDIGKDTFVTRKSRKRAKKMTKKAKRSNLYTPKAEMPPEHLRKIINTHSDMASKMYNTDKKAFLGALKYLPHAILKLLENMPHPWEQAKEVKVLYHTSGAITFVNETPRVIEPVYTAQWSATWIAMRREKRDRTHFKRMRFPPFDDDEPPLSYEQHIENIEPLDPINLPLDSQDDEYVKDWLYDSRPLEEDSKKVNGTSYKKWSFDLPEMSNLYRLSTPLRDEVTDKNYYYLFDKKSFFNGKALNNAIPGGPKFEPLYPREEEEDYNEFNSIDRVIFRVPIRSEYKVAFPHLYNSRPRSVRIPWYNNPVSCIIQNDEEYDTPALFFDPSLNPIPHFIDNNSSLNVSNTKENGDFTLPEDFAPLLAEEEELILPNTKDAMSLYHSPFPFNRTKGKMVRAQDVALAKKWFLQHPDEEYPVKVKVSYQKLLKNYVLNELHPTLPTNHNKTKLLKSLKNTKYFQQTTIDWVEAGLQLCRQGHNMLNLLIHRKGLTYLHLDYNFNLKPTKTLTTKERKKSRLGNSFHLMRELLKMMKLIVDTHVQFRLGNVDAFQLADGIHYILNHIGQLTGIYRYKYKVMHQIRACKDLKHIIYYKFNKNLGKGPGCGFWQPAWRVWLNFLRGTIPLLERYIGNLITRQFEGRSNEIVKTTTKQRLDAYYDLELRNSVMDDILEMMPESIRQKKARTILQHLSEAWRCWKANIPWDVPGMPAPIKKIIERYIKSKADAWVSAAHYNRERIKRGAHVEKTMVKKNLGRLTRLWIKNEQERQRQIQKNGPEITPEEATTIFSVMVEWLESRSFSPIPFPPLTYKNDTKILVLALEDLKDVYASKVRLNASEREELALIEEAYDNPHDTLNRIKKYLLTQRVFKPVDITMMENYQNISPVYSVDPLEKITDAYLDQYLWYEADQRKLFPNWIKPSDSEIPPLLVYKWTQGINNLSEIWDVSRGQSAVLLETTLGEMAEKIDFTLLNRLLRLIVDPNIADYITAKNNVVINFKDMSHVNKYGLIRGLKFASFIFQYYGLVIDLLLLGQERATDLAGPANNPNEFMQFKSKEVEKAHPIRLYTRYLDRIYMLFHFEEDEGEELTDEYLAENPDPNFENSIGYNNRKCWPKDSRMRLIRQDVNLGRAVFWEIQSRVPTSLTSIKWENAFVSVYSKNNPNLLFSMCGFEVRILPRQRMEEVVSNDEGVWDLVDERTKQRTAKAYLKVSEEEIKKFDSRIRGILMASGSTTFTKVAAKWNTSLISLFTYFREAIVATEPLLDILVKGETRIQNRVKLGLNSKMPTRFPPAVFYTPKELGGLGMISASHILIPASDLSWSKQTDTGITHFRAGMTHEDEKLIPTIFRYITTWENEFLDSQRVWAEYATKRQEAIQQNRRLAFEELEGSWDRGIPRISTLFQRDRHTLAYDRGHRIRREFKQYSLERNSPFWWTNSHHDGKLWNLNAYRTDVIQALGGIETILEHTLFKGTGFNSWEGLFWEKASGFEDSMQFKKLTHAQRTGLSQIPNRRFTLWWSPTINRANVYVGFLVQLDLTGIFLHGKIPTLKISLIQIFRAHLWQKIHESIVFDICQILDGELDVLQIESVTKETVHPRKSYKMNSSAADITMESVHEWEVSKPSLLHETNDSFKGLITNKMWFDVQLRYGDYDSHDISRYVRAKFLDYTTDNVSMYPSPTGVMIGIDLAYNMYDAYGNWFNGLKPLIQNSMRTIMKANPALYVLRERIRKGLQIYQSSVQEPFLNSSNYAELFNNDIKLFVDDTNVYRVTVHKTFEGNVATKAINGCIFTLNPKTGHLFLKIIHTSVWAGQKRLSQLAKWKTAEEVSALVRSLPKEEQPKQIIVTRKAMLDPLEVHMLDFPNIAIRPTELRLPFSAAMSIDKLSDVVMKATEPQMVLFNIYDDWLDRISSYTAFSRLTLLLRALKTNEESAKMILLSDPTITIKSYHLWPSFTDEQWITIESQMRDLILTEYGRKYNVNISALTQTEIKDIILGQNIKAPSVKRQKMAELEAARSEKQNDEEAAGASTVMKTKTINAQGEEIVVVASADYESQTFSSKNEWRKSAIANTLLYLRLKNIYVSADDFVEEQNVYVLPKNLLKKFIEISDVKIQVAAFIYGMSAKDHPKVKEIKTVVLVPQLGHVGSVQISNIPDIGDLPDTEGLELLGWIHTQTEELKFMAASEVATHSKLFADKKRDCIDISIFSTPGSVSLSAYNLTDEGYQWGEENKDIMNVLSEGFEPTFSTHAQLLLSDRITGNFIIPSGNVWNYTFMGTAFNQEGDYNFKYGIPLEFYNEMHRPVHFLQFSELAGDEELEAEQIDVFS
UniProt P53115: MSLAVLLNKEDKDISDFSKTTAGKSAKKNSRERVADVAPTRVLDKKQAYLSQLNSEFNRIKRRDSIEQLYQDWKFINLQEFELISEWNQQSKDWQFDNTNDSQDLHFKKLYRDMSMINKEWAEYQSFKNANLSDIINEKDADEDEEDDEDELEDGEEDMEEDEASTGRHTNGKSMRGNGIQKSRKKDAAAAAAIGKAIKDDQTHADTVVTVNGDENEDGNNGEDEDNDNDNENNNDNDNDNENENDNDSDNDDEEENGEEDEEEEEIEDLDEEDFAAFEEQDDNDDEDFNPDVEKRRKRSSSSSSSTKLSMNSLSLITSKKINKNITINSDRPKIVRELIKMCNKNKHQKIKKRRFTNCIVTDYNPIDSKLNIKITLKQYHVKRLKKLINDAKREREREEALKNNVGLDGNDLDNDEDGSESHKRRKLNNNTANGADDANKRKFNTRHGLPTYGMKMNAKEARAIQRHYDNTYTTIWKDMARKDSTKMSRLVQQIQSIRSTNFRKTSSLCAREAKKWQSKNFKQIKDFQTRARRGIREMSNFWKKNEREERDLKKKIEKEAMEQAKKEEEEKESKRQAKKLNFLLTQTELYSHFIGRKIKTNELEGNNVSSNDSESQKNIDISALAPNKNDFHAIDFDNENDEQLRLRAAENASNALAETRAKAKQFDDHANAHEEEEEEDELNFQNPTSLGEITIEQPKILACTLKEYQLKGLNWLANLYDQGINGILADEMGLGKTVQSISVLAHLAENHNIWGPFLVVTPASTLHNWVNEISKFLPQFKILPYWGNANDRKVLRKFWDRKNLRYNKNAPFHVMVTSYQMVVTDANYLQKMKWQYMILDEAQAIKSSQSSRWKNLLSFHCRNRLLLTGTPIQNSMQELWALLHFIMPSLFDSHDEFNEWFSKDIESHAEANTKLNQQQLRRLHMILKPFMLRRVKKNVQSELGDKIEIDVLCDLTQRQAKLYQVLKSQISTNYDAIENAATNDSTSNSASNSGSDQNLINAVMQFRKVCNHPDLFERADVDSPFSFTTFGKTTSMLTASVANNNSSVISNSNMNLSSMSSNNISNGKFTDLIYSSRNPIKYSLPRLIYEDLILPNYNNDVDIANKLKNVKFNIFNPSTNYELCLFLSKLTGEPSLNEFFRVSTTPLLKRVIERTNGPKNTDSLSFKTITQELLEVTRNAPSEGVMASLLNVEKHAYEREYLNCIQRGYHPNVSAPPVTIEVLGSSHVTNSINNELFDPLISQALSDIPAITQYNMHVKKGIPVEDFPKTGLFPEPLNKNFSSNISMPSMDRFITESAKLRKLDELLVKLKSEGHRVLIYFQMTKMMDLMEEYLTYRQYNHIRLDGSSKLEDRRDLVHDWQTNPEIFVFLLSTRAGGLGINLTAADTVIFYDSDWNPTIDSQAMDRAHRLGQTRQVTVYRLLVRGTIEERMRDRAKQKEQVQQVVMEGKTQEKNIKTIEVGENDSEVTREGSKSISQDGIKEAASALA
UniProt P13259: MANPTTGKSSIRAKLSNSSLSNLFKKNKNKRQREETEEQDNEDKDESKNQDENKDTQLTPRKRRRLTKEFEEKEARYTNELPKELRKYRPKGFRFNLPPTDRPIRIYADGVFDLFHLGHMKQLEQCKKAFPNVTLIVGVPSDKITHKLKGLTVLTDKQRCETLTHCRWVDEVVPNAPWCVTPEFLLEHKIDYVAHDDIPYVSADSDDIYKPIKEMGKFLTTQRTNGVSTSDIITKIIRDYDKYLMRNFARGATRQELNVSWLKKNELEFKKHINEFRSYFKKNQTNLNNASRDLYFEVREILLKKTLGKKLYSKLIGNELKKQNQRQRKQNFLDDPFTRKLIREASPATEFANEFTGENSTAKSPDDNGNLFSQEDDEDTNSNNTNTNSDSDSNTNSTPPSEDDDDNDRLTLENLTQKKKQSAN

No constants are given. Whether binding was seen depends on the method and setting. Some entries that bind do so weakly or less than the wild type. For some of these results: Tags and fused reporters may be left off the sequences shown.

In the case of “nascent Prp8 (ribosome-bound nascent chain) (from UniProt P33334 1-2413)”, the binding entry in assay [1] and in assay [2] was “binds” throughout.
Regarding “nascent Srp1 (ribosome-bound nascent chain) (from UniProt Q02821 1-542)”, the binding result in assay [1] is listed as “binds”.
Take “nascent Ino80 (ribosome-bound nascent chain) (from UniProt P53115 1-1489)”: the binding entry in assay [1] and in assay [2] was “binds” throughout.
Turning to “nascent Pct1 (ribosome-bound nascent chain) (from UniProt P13259 1-424)”, the binding entry in assay [1] and in assay [2] was “binds” throughout.

B1: nascent Nug1 (ribosome-bound nascent chain) (protein, UniProt P40010 1-520)
chain: MRVRKRQSRRTSTKLKEGIKKKASAHRKKEKKMAKKDVTWRSRSKKDPGIPSNFPYKAKILEEIEAKKMKDLEERELAKQQRLEARKAAKEQGVDAMDEDMIEDDENGLAALVESAQQAAAEYEGTPSNDADVRDDELDVIDYNIDFYGEDVEGESELEKSRKAYDKIFKSVIDASDVILYVLDARDPESTRSRKVEEAVLQSQGKRLILILNKVDLIPPHVLEQWLNYLKSSFPTIPLRASSGAVNGTSFNRKLSQTTTASALLESLKTYSNNSNLKRSIVVGVIGYPNVGKSSVINALLARRGGQSKACPVGNEAGVTTSLREIKIDNKLKILDSPGICFPSENKKRSKVEHEAELALLNALPAKHIVDPYPAVLMLVKRLAKSDEMTESFKKLYEIPPIPANDADTFTKHFLIHVARKRGRLGKGGIPNLASAGLSVLNDWRDGKILGWVLPNTSAAASQQDKQNLSTINTGTKQAPIAANESTIVSEWSKEFDLDGLFSSLDKAIDASKDQDTMME
Turning to B1, the binding result in assay [3] was “binds”.

B2: nascent Rps1a (ribosome-bound nascent chain) (protein, UniProt P33442 1-255)
chain: MAVGKNKRLSKGKKGQKKRVVDPFTRKEWFDIKAPSTFENRNVGKTLVNKSTGLKSASDALKGRVVEVCLADLQGSEDHSFRKIKLRVDEVQGKNLLTNFHGMDFTTDKLRSMVRKWQTLIEANVTVKTSDDYVLRIFAIAFTRKQANQVKRHSYAQSSHIRAIRKVISEILTKEVQGSTLAQLTSKLIPEVINKEIENATKDIFPLQNIHVRKVKLLKQPKFDVGALMALHGEGSGEEKGKKVTGFKDEVLETV
In the case of B2, the binding result in assay [3] is “binds”.

B3: nascent Noc2 (ribosome-bound nascent chain) (protein, UniProt P39744 1-710)
chain: MGKVSKSTKKFQSKHLKHTLDQRRKEKIQKKRIQGRRGNKTDQEKADAAGTREQQQLKKSAKEEVFKDMSVETFFEKGIEIPKENKKLKKKTTKEQSDEDSSSSEEEEDMGQSMAKLAEKDPEFYKYLEENDKDLLDFAGTNPLDGIDSQDEGEDAERNSNIEEKSEQMELEKEKIELSLKLVRKWKKQLHDSPSLKLLRNIISAFKVAVNLNKEENIEDYKYAITDEKAFHELMFMVLKDVPQAIQKMAPYKIVKGARTLPNGGNVSRVSSIVKSHAGSLLILLNDITNTETAALVLHSVNELMPYLLSYRRILKELIKSIVGVWSTTRELETQIASFAFLINTTKEFKKSMLETTLKTTYSTFIKSCRKTNMRSMPLINFQKNSAAELFGIDEVLGYQVGFEYIRQLAIHLRNTMNATTKKSSKINSAEAYKIVYNWQFCHSLDFWSRVLSFACQPEKENGSESPLRQLIYPLVQVTLGVIRLIPTPQFFPLRFYLIKSLIRLSQNSGVFIPIYPLLSEILTSTAFTKAPKKSPNLAAFDFEHNIKCTQAYLNTKIYQEGLSEQFVDLLGDYFALYCKNIAFPELVTPVIISLRRYIKTSTNVKLNKRLSTVVEKLNQNSTFIQEKRSDVEFGPTNKSEVSRFLNDVAWNKTPLGSYVAVQREVKEEKARLMRESMEEQDKERETEEAKLLNSLESDDDNEDVEMSDA
Take B3: the binding result in assay [3] is recorded as “binds”.

B4: nascent Rpl18a (ribosome-bound nascent chain) (protein, UniProt P0CX49 1-186)
chain: MGIDHTSKQHKRSGHRTAPKSDNVYLKLLVKLYTFLARRTDAPFNKVVLKALFLSKINRPPVSVSRIARALKQEGAANKTVVVVGTVTDDARIFEFPKTTVAALRFTAGARAKIVKAGGECITLDQLAVRAPKGQNTLILRGPRNSREAVRHFGMGPHKGKAPRILSTGRKFERARGRRRSKGFKV
B4: the binding entry in assay [3] is reported as “binds”.

B5: nascent Rps5 (ribosome-bound nascent chain) (protein, UniProt P26783 1-225)
chain: MSDTEAPVEVQEDFEVVEEFTPVVLATPIPEEVQQAQTEIKLFNKWSFEEVEVKDASLVDYVQVRQPIFVAHTAGRYANKRFRKAQCPIIERLTNSLMMNGRNNGKKLKAVRIIKHTLDIINVLTDQNPIQVVVDAITNTGPREDTTRVGGGGAARRQAVDVSPLRRVNQAIALLTIGAREAAFRNIKTIAETLAEELINAAKGSSTSYAIKKKDELERVAKSNR
As to B5, the binding entry in assay [3] is given as “binds”.

B6: nascent Ecm16 (ribosome-bound nascent chain) (protein, UniProt Q04217 1-1267)
chain: MGTYRKRFNEKARSGHMAKLKELKRIRNKQFTRQDENDERVENPDSAPAESSTTEPNANAEILEPLTEEEKKMKKRKLQELFTPKESKVSRLKKKRLDKFIEHQLKREERKTIIGKLQDYKIDTSLLTSSKRLGEGRQTKKEEFKEALSLERQGRGNEQTNEILYEEYEPKVWDEYGEGGSSEDDDGEDDFEASFGSMPKPTDNEEKKSSGFIDHRPAKFGGSGLSFGFSNIKVINKESKTPKKKYNWRQRVEMEELKKHGKEDEMDFDTTSEDDDEEEDQEEEDKMHPSENPLEEVESADSETGSEKFDQNDVANEFKDWANQEIKKLEGRDQELVTPTLNIDYKPIIRKEDLDDGLQEAYVPINENSTRKAFYVEVSRSDEIQKARIQLPVFGEEHKIMEAIHHNDVVIICGETGSGKTTQVPQFLYEAGFGAEDSPDYPGMVGITQPRRVAAVSMAERVANELGDHGHKVGYQIRFDSTAKEDTKVKFMTDGVLLREMMHDFKLTKYSSIIIDEAHERNINTDILIGMLSRCVRLRAKLHKENPIEHKKLKLIIMSATLRVSDFSENKTLFPIAPPVLQVDARQFPVSIHFNRRTAFNYTDEAFRKTCKIHQKLPPGAILVFLTGQQEITHMVKRLRKEFPFKKNSKYNKDLETPVSKMGINSKTTDLEAEDIDFSVQVIDQDKFKSAIRYEEDEGNSGNGEDEEDEEEEGFEEVLTEGQTANDPLYVLPLYSLLPTKEQMRVFQKPPQGSRLCIVATNVAETSLTIPGVRYVVDSGRSKERKYNESNGVQSFEVGWVSKASANQRSGRAGRTGPGHCYRLYSSAVFEHDFEQFSKPEILRMPVESIVLQMKSMAIHNIINFPFPTPPDRVALSKAIQLLQYLGALDNKEMITEDGKKMSLFPLSPRFSKMLLVSDEKACLPYIVAIVSALSVGDPFINEFELGINEISRKPNPDENLDDKIREHDESTPGMDPELKKELRSKFYKSRSQFSKLDKFSDVFRLLSVVSAMDYVPKEQKEIFMKKNFLRGKLMEEIVKLRKQLMYIIKSNTSKENIAVVIRNEDLKSDIPSVIQIKLLKQMICAGFVDHVAVRADVLFPDDAKITNRTSIINIPYIPVLATRTPNIEDCFVYIHPTSILNNLGEMPPKYMLYYSLHLGGNNKTRMNTLCDIASTPLANIARKGLLLTYSKPLTGQGLKTVNLSPTERYCYVVPRFGSTVDNDLKIGWDLNPIAVHQKKQKGQWTVIKFITRKGFQTITGEEKEKK
Take B6: the binding result in assay [3] was “binds”.

Source of the values: PMC10256725.
